The test deals with Integrin α2β1 on human chondrosarcoma cells (K9, K105) (human) (UniProt P17301+P05556). The test can be described thus: adhesion of K9 cells to coated protein, 1 hour, N-acetylglucosaminidase read-out; receptor as attributed in paragraph 181.

Amino acid sequences for entries named in this document (tags omitted). A change or cut given only in a name is not applied to a line headed by its entry.
UniProt P17301: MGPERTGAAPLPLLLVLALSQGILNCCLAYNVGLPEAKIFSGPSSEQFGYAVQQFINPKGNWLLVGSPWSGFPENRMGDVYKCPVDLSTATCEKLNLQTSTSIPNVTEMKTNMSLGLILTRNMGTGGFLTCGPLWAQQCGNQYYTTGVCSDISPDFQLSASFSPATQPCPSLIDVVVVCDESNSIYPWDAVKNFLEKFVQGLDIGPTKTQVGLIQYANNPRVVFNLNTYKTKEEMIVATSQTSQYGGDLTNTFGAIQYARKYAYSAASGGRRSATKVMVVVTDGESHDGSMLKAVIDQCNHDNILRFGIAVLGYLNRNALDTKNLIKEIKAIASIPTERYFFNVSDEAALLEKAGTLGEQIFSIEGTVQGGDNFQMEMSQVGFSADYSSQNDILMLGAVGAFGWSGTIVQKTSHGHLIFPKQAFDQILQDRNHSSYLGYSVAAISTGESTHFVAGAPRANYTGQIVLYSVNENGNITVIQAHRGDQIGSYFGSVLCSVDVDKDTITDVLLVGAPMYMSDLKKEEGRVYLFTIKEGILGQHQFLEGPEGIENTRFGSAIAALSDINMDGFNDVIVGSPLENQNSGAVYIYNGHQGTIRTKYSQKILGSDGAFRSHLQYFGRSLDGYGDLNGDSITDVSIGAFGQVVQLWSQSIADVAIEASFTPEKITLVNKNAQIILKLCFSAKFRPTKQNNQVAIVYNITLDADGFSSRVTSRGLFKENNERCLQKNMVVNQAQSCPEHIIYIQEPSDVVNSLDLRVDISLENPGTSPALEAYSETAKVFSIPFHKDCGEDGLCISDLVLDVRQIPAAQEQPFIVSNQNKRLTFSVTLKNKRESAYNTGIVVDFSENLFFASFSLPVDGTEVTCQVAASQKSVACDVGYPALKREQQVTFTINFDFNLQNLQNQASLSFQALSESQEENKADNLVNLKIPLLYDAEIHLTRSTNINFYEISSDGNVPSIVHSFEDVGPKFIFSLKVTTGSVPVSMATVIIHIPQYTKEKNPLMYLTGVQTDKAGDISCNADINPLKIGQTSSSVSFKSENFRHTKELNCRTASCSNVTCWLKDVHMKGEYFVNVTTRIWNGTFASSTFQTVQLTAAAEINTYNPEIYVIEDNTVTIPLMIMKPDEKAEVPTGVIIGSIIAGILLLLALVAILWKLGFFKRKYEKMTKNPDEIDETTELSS
UniProt P05556: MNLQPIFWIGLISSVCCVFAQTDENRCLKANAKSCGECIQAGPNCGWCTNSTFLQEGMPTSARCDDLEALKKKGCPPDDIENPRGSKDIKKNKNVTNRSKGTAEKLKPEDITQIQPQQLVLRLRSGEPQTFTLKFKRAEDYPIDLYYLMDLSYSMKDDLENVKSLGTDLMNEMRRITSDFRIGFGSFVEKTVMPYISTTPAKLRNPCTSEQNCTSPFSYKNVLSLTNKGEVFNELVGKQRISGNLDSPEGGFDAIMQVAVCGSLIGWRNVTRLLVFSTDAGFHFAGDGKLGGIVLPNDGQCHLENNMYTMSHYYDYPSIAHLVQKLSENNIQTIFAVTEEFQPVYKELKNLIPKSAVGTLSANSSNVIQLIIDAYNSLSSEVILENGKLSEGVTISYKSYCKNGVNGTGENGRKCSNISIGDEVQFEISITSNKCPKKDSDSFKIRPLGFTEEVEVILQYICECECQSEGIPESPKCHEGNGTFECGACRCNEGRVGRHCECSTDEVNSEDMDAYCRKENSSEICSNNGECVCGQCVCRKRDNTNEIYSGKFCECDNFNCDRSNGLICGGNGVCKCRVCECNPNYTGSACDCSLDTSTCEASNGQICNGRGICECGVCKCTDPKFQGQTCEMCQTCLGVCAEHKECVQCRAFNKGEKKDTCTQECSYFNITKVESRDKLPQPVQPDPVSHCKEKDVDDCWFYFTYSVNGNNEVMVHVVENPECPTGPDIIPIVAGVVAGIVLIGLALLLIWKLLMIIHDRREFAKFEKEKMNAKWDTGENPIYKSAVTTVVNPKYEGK

These are yes or no findings as the source states them, for the method shown. Some results given as binding are weak or reduced against the parent protein; the word gives no strength. Sequences can lack the tags named with a protein.

B1: Recombinant human chondroadherin expressed in EBNA cells (ligand)
chain: CPQNCHCHSDLQHVICDKVGLQKIPKVSEKTKLLNLQRNNFPVLAANSFRAMPNLVSLHLQHCQIREVAAGAFRGLKQLIYLYLSHNDIRVLRAGAFDDLTELTYLYLDHNKVTELPRGLLSPLVNLFILQLNNNKIRELRAGRFQGAKDLRWLYLSENALSSLQPGALDDVENLAKFHVDRNQLSSYPSAALSKLRVVEELKLSHNPLKSIPDNAFQSFGRYLETLWLDNTNLEKFSDGAFLGVTTLKHVHLENNRLNQLPSNFPFDSLETLALTNNPWKCTCQLRGLRRWLEAKASRPDATCASPAKFKGQHIRDTDAFRSCKFPTKRSKKAGRH
In the case of B1, the binding result is on record as “binds”.

B2: Human chondroadherin expressed in E. coli (His-tagged, unfolded) (ligand, not shown: small tags and cut ends)
chain: B1 chain
modifications: cysteine residues blocked by N-ethylmaleimide
B2: the binding entry is “binds”.

The record behind these values is patent US20090291879A1 (published 2009).
